Data taken from PMC6377682.
Results are given in words; binding and its absence hold for the method and conditions named. Binding seen in cells or lysates may run through a third protein. Binding calls can cover weak binding; strength is not graded here.

The chains behind the UniProt entries cited, without tags or fusion partners. Where a name states a change or a piece, a line headed by the entry shows the natural chain unless it says otherwise.
UniProt Q9VQK1: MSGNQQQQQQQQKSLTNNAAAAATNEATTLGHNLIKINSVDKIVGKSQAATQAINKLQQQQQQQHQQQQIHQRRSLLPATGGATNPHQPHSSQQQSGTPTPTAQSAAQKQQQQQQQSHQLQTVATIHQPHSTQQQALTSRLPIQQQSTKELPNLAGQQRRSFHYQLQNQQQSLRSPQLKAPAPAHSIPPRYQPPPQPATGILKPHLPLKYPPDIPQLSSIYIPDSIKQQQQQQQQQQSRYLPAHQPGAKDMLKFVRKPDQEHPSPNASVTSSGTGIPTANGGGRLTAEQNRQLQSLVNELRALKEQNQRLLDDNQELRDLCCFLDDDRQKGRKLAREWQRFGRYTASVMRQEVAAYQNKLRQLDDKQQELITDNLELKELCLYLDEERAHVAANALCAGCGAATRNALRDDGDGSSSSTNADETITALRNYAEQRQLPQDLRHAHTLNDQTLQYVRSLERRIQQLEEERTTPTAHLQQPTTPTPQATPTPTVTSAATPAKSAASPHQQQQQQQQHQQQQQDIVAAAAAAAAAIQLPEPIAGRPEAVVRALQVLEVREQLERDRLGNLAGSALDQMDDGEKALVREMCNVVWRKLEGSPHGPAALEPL
UniProt P48461: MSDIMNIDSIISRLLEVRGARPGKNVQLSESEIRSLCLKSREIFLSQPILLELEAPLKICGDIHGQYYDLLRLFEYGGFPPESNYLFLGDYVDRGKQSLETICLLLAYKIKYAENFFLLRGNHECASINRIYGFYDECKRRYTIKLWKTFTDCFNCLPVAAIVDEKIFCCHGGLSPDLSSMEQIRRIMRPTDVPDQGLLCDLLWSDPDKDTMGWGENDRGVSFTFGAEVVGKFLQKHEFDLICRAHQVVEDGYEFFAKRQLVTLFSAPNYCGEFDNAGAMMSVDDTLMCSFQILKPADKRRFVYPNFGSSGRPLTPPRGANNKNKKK

Target: Drosophila Ccdc85 (Drosophila) (UniProt Q9VQK1)
Assay: co-IP; as a1, FLAG-Ccdc85 IP from S2 cells without ASPP co-transfection (S2 cells do not express endogenous ASPP)

Substance: Drosophila PP1α96A (from UniProt P48461 1-327) (enzyme)
- binding: binds weakly
